From article doi:10.1101/2025.07.28.667281
No constants are given. Whether binding was seen depends on the method and setting. Binding seen in cells or lysates may run through a third protein. Some entries that bind do so weakly or less than the wild type. Sequences can lack the tags named with a protein.

Sequences of proteins named here, by UniProt entry; tags and fusion partners are left off. A change or cut given only in a name is not applied to a line headed by its entry. Residues count along the entry.
UniProt Q3V0T4: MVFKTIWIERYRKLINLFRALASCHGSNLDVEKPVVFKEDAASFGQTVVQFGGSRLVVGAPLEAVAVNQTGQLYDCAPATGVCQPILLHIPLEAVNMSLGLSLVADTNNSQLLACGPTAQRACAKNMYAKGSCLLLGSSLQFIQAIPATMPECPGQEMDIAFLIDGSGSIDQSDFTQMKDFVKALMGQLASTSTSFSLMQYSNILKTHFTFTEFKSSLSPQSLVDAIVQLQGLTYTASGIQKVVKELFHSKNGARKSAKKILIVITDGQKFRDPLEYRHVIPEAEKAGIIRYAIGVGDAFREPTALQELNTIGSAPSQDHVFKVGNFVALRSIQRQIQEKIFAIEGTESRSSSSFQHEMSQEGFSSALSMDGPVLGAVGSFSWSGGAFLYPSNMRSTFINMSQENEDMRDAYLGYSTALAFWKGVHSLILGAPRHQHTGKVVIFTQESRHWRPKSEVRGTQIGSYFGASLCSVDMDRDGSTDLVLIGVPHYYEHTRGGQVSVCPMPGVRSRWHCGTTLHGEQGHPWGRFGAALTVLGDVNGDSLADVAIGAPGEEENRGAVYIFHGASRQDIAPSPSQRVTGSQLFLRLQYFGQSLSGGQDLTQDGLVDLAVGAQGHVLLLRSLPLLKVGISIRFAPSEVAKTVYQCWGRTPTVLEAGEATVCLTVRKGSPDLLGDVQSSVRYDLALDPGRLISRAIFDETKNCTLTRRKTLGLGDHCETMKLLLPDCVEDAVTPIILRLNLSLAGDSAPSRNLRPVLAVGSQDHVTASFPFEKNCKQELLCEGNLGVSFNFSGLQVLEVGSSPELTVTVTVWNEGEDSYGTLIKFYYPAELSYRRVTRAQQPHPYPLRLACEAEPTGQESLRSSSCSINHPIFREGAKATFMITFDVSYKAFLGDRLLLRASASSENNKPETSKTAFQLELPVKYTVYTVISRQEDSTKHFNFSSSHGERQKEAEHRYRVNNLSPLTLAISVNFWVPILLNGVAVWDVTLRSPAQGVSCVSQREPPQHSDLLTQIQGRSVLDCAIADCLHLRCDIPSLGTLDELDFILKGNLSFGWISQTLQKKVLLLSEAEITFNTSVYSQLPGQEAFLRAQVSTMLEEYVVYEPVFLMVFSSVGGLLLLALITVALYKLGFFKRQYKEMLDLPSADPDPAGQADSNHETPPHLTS
UniProt P11835, residues 24-771: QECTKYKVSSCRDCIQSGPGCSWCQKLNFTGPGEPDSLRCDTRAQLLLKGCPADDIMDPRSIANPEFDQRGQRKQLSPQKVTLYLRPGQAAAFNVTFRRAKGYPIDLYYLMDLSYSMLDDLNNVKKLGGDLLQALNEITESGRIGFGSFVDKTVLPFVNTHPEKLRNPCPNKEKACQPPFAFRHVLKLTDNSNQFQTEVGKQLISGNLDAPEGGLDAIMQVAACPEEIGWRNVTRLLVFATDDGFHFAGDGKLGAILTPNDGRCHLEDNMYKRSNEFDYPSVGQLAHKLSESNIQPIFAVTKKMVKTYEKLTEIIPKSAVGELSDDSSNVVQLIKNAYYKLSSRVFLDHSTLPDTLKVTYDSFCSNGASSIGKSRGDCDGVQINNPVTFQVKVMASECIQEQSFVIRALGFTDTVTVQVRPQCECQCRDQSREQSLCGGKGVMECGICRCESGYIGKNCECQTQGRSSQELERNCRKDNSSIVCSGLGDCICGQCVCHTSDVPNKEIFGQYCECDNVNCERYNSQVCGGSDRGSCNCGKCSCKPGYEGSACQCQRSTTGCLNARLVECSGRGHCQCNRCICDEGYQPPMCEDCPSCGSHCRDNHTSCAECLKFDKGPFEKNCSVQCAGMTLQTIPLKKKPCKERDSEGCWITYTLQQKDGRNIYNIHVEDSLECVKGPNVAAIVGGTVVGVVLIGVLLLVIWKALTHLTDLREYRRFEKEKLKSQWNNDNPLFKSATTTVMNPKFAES
UniProt P24063: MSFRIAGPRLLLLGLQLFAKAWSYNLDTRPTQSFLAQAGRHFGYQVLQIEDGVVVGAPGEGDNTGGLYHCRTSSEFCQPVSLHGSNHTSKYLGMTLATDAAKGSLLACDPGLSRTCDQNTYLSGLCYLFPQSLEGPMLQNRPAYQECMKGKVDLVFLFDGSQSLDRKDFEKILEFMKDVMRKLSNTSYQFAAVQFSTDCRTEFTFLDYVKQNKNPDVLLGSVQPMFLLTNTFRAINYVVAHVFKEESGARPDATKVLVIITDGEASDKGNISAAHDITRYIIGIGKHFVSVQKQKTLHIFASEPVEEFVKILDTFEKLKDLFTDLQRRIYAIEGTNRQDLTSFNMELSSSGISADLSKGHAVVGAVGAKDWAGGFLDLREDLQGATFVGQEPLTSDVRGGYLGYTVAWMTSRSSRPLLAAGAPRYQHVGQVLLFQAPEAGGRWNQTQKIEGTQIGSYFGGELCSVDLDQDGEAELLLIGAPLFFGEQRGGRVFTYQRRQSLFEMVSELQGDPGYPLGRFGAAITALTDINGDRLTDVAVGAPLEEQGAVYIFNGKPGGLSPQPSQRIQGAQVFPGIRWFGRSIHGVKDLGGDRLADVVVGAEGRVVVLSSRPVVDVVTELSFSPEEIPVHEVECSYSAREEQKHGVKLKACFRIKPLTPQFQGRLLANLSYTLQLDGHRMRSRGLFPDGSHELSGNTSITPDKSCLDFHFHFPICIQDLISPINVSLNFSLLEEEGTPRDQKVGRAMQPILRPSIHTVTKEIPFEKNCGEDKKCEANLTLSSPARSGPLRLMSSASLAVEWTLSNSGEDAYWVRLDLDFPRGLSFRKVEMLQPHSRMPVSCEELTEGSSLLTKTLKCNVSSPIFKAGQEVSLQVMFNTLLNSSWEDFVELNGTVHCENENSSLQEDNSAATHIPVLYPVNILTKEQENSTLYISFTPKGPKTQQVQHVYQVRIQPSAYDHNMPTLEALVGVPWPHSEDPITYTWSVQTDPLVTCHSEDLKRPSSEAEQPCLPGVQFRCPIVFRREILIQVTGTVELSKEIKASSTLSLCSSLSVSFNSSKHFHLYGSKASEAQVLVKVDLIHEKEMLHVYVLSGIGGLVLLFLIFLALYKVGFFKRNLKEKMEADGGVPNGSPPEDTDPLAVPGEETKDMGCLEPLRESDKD

T1: Flag-tagged EGFL7 (UniProt Q9QXT5)
T1 sequence: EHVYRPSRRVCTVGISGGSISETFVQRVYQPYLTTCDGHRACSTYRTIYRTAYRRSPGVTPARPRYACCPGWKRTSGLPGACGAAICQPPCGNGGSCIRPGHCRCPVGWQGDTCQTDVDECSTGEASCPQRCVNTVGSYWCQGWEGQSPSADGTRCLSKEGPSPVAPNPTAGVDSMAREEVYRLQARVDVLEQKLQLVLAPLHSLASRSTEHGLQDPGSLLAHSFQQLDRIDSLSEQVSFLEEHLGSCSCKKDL


Biological target: T1, Flag-tagged EGFL7
Assay: co-IP

binding	Molecule
binds weakly	ITGAD-ITGB2 (from UniProt Q3V0T4 27-1168; P11835 24-771) (complex)
binds	ITGAL-ITGB2, lymphocyte function-associated antigen 1 (LFA-1) (from UniProt P24063 24-1162; P11835 24-771) (complex)
binds	V5-tagged ITGB2 (from UniProt P11835 24-771) (receptor)
binds	V5-tagged ITGB3 (receptor, UniProt O54890 26-787) ESNICTTRGVNSCQQCLAVSPVCAWCSDETLSQGSPRCNLKENLLKDNCAPESIEFPVSEAQILEARPLSSKGSGSSAQITQVSPQRIALRLRPDDSKIFSLQVRQVEDYPVDIYYLMDLSFSMKDDLSSIQTLGTKLASQMRKLTSNLRIGFGAFVDKPVSPYMYISPPQAIKNPCYNMKNACLPMFGYKHVLTLTDQVSRFNEEVKKQSVSRNRDAPEGGFDAIMQATVCDEKIGWRNDASHLLVFTTDAKTHIALDGRLAGIVLPNDGHCHIGTDNHYSASTTMDYPSLGLMTEKLSQKNINLIFAVTENVVSLYQNYSELIPGTTVGVLSDDSSNVLQLIVDAYGKIRSKVELEVRDLPEELSLSFNATCLNNEVIPGLKSCVGLKIGDTVSFSIEAKVRGCPQEKEQSFTIKPVGFKDSLTVQVTFDCDCACQAFAQPSSPRCNNGNGTFECGVCRCDQGWLGSMCECSEEDYRPSQQEECSPKEGQPICSQRGECLCGQCVCHSSDFGKITGKYCECDDFSCVRYKGEMCSGHGQCNCGDCVCDSDWTGYYCNCTTRTDTCMSTNGLLCSGRGNCECGSCVCVQPGSYGDTCEKCPTCPDACSFKKECVECKKFNRGTLHEENTCSRYCRDDIEQVKELTDTGKNAVNCTYKNEDDCVVRFQYYEDTSGRAVLYVVEEPECPKGPDILVVLLSVMGAILLIGLATLLIWKLLITIHDRKEFAKFEEERARAKWDTANNPLYKEATSTFTNITYRGT
